Data: PubChem BioAssay AID651789 (National Center for Advancing Translational Sciences (NCATS), 2012)
Inconclusive means that the source gave no clear call. Such entries were picked first, then a sample of the others. Potencies of inconclusive entries are doubtful fits and often do not repeat. Calls of active or inactive are those of the source. The call rests on the fitted dose curve; in most records, active means well fitted inhibition curve with a large enough effect; inconclusive means small, poorly fitted or top-dose-only effect; inactive means no such curve, though single readings can be large or run the other way.

Assay: Acumen qHTS Assay for Inhibitors of the mTORC1 Signaling Pathway in WT MEF Cells: Hit Validation; further: nearly all actives have a fitted effect of over 60% in size
Details: Acumen imaging; series mostly up to 37.3 µM
In short: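 Read-out is immunofluorescent phospho-rpS6 (Ser235/236) normalised to PI-stained cell number, reported as % active cells using a 7.5 nM rapamycin threshold. Cells: WT or Tsc2-/-, p53-/- MEFs, compound-exposed 24 h at 37C; PI count also tracks viability.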
Potency means the concentration at half of the fitted maximal effect.

SMILES | Potency
COc1cc(OC)c(NC(=O)Nc2ccc3c(c2)N(C)C(=O)c2ccccc2S3)cc1Cl | active: 5.21 µM
CCCc1oc2ccc(NS(=O)(=O)c3ccc(OC)cc3)cc2c1C(=O)OCC | active: 0.585 µM
CCCCN(CCCNC(=O)c1cc(Nc2cccc(SC)c2)nc2ccccc12)Cc1ccccc1 | inconclusive: 23.3 µM [inhibitor, single point]
CCOc1ccc(Nc2nc(N)c(C(=O)c3ccccc3Cl)s2)cc1 | inconclusive: 8.26 µM [inhibitor, partial curve, poor fit]
Cc1ccc2nc(-c3cccc(NC(=O)c4cccc5ccccc45)c3)oc2c1 | inactive
Cc1ccc(C(=O)Nc2c(C(=O)NCc3ccc(Cl)cc3)sc3nc(C)cc(C)c23)cc1 | inconclusive: 26.1 µM [inhibitor, single point]
Cc1ccc(Nc2nc(C(N)=O)c(NC(=O)c3ccccc3Br)s2)cc1 | active: 3.69 µM
CCCCNC(=O)CSc1c2c(nc3ccc(Cl)cc13)CCCC2 | inconclusive: 14.7 µM [inhibitor, partial curve, poor fit]
CCc1ccc(C(=O)CC2(O)C(=O)N(Cc3ccc(C)cc3)c3ccccc32)cc1 (stereo unspecified) | inconclusive: 2.07 µM [inhibitor, full curve, poor fit]
CCS(=O)(=O)c1ncc(Cl)c(C(=O)Nc2ccc(S(=O)(=O)N(C)c3ccccc3)cc2)n1 | active: 0.927 µM
O=C(NC1CCCCC1)/C(=C/c1ccc(Cl)cc1)NC(=O)c1ccccc1 | inconclusive: 23.3 µM [inhibitor, single point]
Cc1ccc(CS(=O)(=O)c2ncc(Cl)c(C(=O)Nc3nnc(C(C)C)s3)n2)cc1 | active: 11.7 µM
O=C(Nc1ccccc1F)c1nc(S(=O)(=O)Cc2ccccc2F)ncc1Cl | inconclusive: 1.65 µM [inhibitor, full curve, poor fit]
CCc1ccc(-c2nc(CSCC(=O)NCc3ccc(C)cc3)c(C)o2)cc1 | inactive
CCS(=O)(=O)c1ncc(Cl)c(C(=O)Nc2ccccc2)n1 | inconclusive: 2.93 µM [inhibitor, full curve]
CCN(CC)CC(C)CNC(=O)c1cc(-c2ccc(Br)s2)nc2ccccc12 (stereo unspecified) | inconclusive: 26.1 µM [inhibitor, single point]

SMILES | Potency
Cc1cccc(C)c1Nc1sc(C(=O)c2ccccc2)c(N)c1S(=O)(=O)c1ccccc1 | inconclusive: 4.14 µM [inhibitor, full curve]
CC(C)c1ccc(C2Sc3ccccc3NC3=C2C(=O)c2ccccc23)cc1 (stereo unspecified) | inactive
CCS(=O)(=O)c1ncc(Cl)c(C(=O)N2CCN(c3cccc(Cl)c3)CC2)n1 | active: 2.61 µM
O=C(CN(CCc1ccccc1)S(=O)(=O)c1ccccc1)NCc1ccc(Cl)cc1 | inconclusive: 26.1 µM [inhibitor, single point]
O=C(Nc1ccccc1)N(Cc1cccc(Cl)c1)c1ccccn1 | inactive
Cc1ccc(C)c(N2CCN(CCCNC(=O)Nc3ccc(Cl)cc3)CC2)c1 | inconclusive: 7.36 µM [inhibitor, partial curve, poor fit]
Cc1cc(C)cc(C(=O)Nc2ccc(-c3nc4ncccc4o3)cc2)c1 | inactive
CCN(CC)c1ccc(NC(=O)CN(C)S(=O)(=O)c2cccc3nsnc23)c(C)c1 | inconclusive: 26.1 µM [inhibitor, single point]
COc1ccc(Nc2nc(N)c3cc(OC)c(OC)cc3n2)cc1 | inconclusive: 6.56 µM [inhibitor, partial curve, poor fit]
O=C(NCC(c1cccs1)S(=O)(=O)c1cccs1)c1ccccc1 (stereo unspecified) | inactive
CCc1ccc(CNc2ncc(-c3cccc(OC)c3)n2C)cc1 | inactive
COC(=O)c1ccc(Nc2nnc(-c3ccc(C)c(S(=O)(=O)N4CCN(C)CC4)c3)c3ccccc23)cc1 | inconclusive: 18.5 µM [inhibitor, single point]
Cc1ccc(-c2nc3ccccc3[nH]2)cc1NC(=O)COc1ccccc1[N+](=O)[O-] | inconclusive: 20.7 µM [inhibitor, single point]
CC1=Nc2cc(C(=O)NC3CCCC3)ccc2Sc2ccc(Br)cc21 | inconclusive: 0.521 µM [inhibitor, full curve]
CCCN(CCC)CC(O)Cn1cc(/C=C/C(=O)c2ccc(OC)cc2)c2ccccc21 (stereo unspecified) | inconclusive: 11.7 µM [inhibitor, partial curve, poor fit]

Arranged by count of non-hydrogen atoms (largest number first): part of the list above
SMILES | Potency
CC(C)c1ccc(C2Sc3ccccc3NC3=C2C(=O)c2ccccc23)cc1 (stereo unspecified) | inactive
Cc1cc(C)cc(C(=O)Nc2ccc(-c3nc4ncccc4o3)cc2)c1 | inactive
O=C(Nc1ccccc1)N(Cc1cccc(Cl)c1)c1ccccn1 | inactive
